The text below walks through data of publication PMC11408687.

The chains behind the UniProt entries cited, without tags or fusion partners. Where a name states a change or a piece, a line headed by the entry shows the natural chain unless it says otherwise. Residues count along the entry.
UniProt Q91VN0, residues 31-1614: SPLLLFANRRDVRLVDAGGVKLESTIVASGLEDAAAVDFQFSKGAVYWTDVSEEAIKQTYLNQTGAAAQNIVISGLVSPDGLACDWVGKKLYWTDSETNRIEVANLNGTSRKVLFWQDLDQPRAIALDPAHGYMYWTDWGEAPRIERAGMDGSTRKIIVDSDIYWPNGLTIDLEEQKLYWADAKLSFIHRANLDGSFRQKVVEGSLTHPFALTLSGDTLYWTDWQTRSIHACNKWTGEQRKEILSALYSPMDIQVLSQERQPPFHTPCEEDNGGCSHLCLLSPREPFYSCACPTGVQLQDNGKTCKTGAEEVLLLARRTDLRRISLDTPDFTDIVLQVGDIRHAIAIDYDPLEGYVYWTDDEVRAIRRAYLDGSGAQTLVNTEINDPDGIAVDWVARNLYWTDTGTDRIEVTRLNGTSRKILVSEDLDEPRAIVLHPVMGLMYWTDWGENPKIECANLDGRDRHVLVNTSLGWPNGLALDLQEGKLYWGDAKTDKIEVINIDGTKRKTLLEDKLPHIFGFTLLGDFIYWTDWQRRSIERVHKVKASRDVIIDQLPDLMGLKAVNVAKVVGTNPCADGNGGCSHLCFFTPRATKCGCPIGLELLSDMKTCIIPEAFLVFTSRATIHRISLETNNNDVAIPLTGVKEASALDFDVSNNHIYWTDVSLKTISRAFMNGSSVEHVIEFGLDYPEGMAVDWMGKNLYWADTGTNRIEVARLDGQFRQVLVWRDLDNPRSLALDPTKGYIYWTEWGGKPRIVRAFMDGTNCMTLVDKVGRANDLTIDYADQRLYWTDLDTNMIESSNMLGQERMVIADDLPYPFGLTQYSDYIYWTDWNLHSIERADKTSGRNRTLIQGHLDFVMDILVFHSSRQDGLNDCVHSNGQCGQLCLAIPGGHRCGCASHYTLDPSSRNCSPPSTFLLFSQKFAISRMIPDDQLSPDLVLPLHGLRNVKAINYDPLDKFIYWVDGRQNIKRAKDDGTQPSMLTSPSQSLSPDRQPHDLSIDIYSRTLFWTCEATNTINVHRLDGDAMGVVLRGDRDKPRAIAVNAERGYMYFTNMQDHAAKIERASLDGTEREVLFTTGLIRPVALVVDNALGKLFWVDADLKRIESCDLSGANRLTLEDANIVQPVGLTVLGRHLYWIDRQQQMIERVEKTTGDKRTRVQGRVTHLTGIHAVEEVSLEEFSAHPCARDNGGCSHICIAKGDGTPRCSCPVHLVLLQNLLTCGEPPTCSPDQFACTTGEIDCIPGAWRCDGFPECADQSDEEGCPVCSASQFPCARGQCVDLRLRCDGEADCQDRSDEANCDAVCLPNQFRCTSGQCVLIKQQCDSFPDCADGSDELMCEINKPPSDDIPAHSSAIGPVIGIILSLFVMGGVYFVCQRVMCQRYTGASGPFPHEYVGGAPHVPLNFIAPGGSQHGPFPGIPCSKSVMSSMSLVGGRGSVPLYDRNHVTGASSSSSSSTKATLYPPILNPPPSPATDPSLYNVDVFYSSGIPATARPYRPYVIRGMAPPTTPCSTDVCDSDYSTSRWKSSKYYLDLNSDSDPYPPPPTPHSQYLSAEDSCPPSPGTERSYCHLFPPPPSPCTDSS
UniProt Q02248: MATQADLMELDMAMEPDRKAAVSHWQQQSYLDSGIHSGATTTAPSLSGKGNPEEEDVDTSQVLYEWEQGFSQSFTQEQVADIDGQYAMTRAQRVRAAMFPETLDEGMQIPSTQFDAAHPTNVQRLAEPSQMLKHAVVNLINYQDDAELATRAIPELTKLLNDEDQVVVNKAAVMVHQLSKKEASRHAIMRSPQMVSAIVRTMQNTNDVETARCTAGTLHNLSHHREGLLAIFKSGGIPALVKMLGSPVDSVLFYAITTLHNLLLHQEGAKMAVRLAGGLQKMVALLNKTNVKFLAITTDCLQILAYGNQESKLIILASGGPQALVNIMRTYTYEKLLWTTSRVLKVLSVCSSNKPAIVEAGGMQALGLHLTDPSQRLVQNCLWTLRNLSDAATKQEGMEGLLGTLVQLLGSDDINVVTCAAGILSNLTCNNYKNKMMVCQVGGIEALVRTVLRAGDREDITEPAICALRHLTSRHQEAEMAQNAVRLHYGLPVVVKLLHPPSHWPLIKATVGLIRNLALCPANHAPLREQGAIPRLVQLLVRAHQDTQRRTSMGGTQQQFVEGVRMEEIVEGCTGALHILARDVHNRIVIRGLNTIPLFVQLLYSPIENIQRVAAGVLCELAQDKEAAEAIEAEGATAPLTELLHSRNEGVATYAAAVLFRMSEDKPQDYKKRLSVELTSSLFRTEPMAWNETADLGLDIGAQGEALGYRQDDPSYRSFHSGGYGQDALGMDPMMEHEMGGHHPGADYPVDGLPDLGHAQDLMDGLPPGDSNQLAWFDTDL
UniProt O75197: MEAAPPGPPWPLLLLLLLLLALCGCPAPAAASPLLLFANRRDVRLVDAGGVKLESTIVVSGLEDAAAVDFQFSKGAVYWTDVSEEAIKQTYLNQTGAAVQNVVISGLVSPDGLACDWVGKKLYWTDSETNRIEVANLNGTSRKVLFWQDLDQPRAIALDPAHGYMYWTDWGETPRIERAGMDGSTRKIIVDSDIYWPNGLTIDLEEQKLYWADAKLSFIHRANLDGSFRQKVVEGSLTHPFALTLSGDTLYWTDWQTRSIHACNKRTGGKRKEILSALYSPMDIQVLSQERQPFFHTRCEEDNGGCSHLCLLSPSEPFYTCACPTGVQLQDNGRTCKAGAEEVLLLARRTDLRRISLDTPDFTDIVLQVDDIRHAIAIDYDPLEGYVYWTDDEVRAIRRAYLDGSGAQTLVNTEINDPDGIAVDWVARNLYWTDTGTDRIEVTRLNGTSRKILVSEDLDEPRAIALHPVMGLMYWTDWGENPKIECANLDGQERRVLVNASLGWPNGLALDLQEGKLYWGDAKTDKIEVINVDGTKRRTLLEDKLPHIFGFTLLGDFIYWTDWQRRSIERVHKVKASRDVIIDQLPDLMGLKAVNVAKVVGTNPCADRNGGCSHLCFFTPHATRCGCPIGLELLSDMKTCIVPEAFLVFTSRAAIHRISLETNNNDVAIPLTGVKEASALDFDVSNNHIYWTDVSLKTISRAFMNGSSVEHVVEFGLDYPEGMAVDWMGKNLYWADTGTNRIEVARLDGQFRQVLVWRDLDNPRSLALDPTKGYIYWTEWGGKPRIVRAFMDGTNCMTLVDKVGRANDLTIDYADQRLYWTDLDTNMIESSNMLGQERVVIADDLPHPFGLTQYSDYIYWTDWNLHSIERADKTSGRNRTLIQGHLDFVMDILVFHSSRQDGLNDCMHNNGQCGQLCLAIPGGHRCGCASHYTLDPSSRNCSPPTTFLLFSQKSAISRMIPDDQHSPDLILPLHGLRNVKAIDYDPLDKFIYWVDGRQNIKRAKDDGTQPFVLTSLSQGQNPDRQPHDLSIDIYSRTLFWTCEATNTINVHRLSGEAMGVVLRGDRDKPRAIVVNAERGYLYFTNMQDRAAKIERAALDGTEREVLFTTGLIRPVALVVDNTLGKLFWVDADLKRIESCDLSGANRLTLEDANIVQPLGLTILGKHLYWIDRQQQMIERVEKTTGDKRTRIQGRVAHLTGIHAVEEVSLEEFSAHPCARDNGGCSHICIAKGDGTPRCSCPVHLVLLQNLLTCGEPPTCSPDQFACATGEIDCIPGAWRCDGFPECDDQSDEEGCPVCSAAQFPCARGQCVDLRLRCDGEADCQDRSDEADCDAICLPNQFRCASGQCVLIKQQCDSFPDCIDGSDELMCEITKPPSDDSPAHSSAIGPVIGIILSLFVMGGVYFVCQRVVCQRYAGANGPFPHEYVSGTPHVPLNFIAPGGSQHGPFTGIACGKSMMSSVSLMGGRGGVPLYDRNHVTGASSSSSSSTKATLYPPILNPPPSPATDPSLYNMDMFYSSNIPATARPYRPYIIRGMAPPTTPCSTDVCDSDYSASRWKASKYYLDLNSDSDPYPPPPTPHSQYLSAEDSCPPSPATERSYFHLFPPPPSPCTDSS
UniProt P35222: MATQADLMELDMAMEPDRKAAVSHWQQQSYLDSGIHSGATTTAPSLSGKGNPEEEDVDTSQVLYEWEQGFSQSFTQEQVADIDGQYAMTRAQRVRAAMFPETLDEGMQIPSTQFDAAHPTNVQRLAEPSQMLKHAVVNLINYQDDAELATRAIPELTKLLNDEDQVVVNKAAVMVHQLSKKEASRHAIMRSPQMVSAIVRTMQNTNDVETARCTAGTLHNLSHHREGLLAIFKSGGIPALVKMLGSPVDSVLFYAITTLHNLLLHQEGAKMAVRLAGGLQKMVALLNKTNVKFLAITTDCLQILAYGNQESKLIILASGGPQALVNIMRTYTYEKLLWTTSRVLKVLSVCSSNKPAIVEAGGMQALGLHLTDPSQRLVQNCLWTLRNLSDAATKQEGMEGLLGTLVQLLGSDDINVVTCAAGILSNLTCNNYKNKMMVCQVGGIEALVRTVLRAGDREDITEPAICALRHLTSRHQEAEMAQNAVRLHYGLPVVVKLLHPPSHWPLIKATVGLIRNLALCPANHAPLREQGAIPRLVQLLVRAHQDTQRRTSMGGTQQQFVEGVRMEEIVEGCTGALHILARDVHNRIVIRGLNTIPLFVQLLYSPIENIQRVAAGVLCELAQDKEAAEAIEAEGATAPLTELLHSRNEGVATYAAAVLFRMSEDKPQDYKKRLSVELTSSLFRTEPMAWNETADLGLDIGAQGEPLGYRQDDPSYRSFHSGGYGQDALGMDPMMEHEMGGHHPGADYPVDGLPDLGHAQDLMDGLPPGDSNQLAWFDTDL

These are yes or no findings as the source states them, for the method shown. For part of these data: Binding seen in cells or lysates may run through a third protein. Some binding calls cover weakened binding; strength is not graded here. For part of these data: Where a sequence is shown, tags or fusion partners need not be part of it.

One assay concerns the target T1, GST-MANF fusion protein (UniProt P55145).
T1 sequence: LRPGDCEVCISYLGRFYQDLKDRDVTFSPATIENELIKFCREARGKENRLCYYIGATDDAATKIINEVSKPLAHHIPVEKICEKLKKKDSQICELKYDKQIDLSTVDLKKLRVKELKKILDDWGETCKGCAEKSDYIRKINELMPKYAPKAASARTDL
Briefly: pull-down; GST-tag fusion protein immobilised on glutathione Sepharose beads, purified His-tag protein added, 4 °C; GST as negative control; Coomassie staining and immunoblotting; both purified.

Assay [1] deals with T2, Mesencephalic astrocyte-derived neurotrophic factor (MANF), endogenous in mouse liver (mouse (endogenous in liver tissue)) (UniProt Q9CXI5).
T2 sequence: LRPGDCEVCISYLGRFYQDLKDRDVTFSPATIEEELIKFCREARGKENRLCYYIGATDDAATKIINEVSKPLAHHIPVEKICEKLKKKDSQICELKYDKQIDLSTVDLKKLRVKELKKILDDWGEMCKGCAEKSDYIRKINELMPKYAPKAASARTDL
Briefly: co-IP; mouse liver tissue after 2/3 PH homogenised in IP lysis buffer; antibody on protein A/G agarose beads, overnight at 4 °C; isotype IgG as negative control; immunoblotting. For orientation: Immunoblotting shows a protein as a band on a membrane.

Assay [2] addresses Low-density lipoprotein receptor-related protein 5 (LRP5), endogenous in mouse liver (mouse (endogenous in liver tissue)) (UniProt Q91VN0). The assay is described as above.
In assay [3] the target is β-catenin, endogenous in mouse liver (mouse (endogenous in liver tissue)) (UniProt Q02248). The description is as above.
Assay [4] concerns the target GST-LRP5-N fusion protein (extracellular domain of LRP5) (UniProt O75197). Briefly: pull-down; GST-tag fusion protein immobilised on glutathione Sepharose beads, purified His-tag protein added, 4 °C; GST as negative control; Coomassie staining and immunoblotting; both purified.

On to “His-β-catenin fusion protein (from UniProt P35222 1-781)”, for which, in the assay with GST-MANF fusion protein, the binding entry was “binds”. For “His-LRP5-N fusion protein (extracellular domain of LRP5) (from UniProt O75197 32-1384) (domain or fragment)”, in the assay with GST-MANF fusion protein, the binding result is “binds”. For the molecule “β-catenin, endogenous in mouse liver (from UniProt Q02248 1-781)”, the binding entry in assay [1] is recorded as “binds”.

B1: Mesencephalic astrocyte-derived neurotrophic factor (MANF), endogenous in mouse liver (protein, UniProt Q9CXI5 22-179)
chain: LRPGDCEVCISYLGRFYQDLKDRDVTFSPATIEEELIKFCREARGKENRLCYYIGATDDAATKIINEVSKPLAHHIPVEKICEKLKKKDSQICELKYDKQIDLSTVDLKKLRVKELKKILDDWGEMCKGCAEKSDYIRKINELMPKYAPKAASARTDL
Take B1: the binding entry in assay [2] and in assay [3] was “binds” each time.

B2: His-MANF fusion protein (protein, UniProt P55145 25-182)
chain: LRPGDCEVCISYLGRFYQDLKDRDVTFSPATIENELIKFCREARGKENRLCYYIGATDDAATKIINEVSKPLAHHIPVEKICEKLKKKDSQICELKYDKQIDLSTVDLKKLRVKELKKILDDWGETCKGCAEKSDYIRKINELMPKYAPKAASARTDL
Regarding B2, the binding entry in assay [4] is listed as “binds”.
